Experimental data as given in US11331369B2 (Zoetis Services LLC, priority 2017, dated 2022).

Experiment: general procedure: solution-phase peptide synthesis; HATU/diisopropylethylamine; propylphosphonic anhydride/diisopropylethylamine for
Details: coupling step

Substance	step yield [%]
(R)-1-(benzyloxy)-1-oxopropan-2-yl N—((R)-2-((N-(tert-butoxycarbonyl)-N-methyl-L-leucyl)oxy)-3-(4-((methoxycarbonyl)amino)phenyl)propanoyl)-N-methyl-L-leucinate	83

Same assay, conditions: cyclisation step

Substance	cyclisation yield [% yield]
dimethyl ((((2S,5R,8S,11R,14S,17R,20S,23R)-5,11,17,23-tetraisobutyl-4,8,10,16,20,22-hexamethyl-3,6,9,12,15,18,21,24-octaoxo-1,7,13,19-tetraoxa-4,10,16,22-tetraazacyclotetracosane-2,14-diyl)bis(methylene))bis(4,1-phenylene))dicarbamate	77

Same assay, conditions: late stage modification step

Substance	step yield
Bis-CH2Cl PF1022a	98% yield
(3S,6R,9S,12R,15S,18R,21S,24R)-3,9,15,21-tetraisobutyl-4,6,10,16,18,22-hexamethyl-12,24-bis[[4-(pyrazol-1-ylmethyl)phenyl]methyl]-1,7,13,19-tetraoxa-4,10,16,22-tetrazacyclotetracosane-2,5,8,11,14,17,20,23-octaone	14%
(3S,6R,9S,12R,15S,18R,21S,24R)-6,18-bis(4-(2-(4-bromo-1H-pyrazol-1-yl)propan-2-yl)benzyl)-3,9,15,21-tetraisobutyl-4,10,12,16,22,24-hexamethyl-1,7,13,19-tetraoxa-4,10,16,22-tetraazacyclotetracosan-2,5,8,11,14,17,20,23-octaone	14%
(3S,6R,9S,12R,15S,18R,21S,24R)-6,18-bis(4-((5-(difluoromethyl)-1H-pyrazol-1-yl)methyl)benzyl)-3,9,15,21-tetraisobutyl-4,10,12,16,22,24-hexamethyl-1,7,13,19-tetraoxa-4,10,16,22-tetraazacyclotetracosan-2,5,8,11,14,17,20,23-octaone	14%
(3S,6R,9S,12R,15S,18R,21S,24R)-6,18-bis(4-((5-cyclopropyl-1H-pyrazol-1-yl)methyl)benzyl)-3,9,15,21-tetraisobutyl-4,10,12,16,22,24-hexamethyl-1,7,13,19-tetraoxa-4,10,16,22-tetraazacyclotetracosan-2,5,8,11,14,17,20,23-octaone	22%
1-(4-(((2R,5S,8R,11S,14R,17S,20R,23S)-14-(4-((3,5-dicyclopropyl-1H-pyrazol-1-yl)methyl)benzyl)-5,11,17,23-tetraisobutyl-4,8, 10,16,20,22-hexamethyl-3,6,9,12,15,18,21,24-octaoxo-1,7,13,19-tetraoxa-4,10,16,22-tetraazacyclotetracosan-2-yl)methyl)benzyl)-1H-pyrazole-3,5-dicarbonitrile	21%
(3S,6R,9S,12R,15S,18R,21S,24R)-3,9,15,21-tetraisobutyl-4,6,10,16,18,22-hexamethyl-12,24-bis(4-((5-methyl-5,6-dihydropyrrolo[3,4-c]pyrazol-2(4H)-yl)methyl)benzyl)-1,7,13,19-tetraoxa-4,10,16,22-tetraazacyclotetracosan-2,5,8,11,14,17,20,23-octaone	11%
(3S,6R,9S,12R,15S,18R,21S,24R)-6-(4-((R)-1-(3,5-bis(trifluoromethyl)-1H-pyrazol-1-yl)ethyl)benzyl)-18-(4-((S)-1-(3,5-bis(trifluoromethyl)-1H-pyrazol-1-yl)ethyl)benzyl)-3,9,15,21-tetraisobutyl-4,10,12,16,22,24-hexamethyl-1,7,13,19-tetraoxa-4,10,16,22-tetraazacyclotetracosan-2,5,8,11,14,17,20,23-octaone	11%
Bis-Iodo PF1022a	62%

Same assay, conditions: late stage modification step, 2 steps from Bis-Iodo PF1022a

Substance	step yield [% yield for 2 steps]
Bis-CH2OH PF1022a	91
